Reference: US5625032A (Amylin Pharmaceuticals, Inc., priority 1993, dated 1997)
HELM strings list residues between dots; [ac] is acetyl, [am] amide, other brackets name non-standard units.

Assay: general procedure: Fmoc solid-phase peptide synthesis; 4-(2',4'-dimethoxyphenyl)-Fmoc aminomethyl phenoxy resin (Novabiochem); HBTU (Fast Moc)
Details: whole synthesis, analytical RP-HPLC

PEPTIDE1{[ac].A.T.Q.R.L.A.N.E.L.V.R.L.Q.T.Y.P.R.T.N.V.G.S.N.T.Y.[am]}$$$$V2.0
final HPLC purity: 99%
